Columns and labels:
Format in all cases: cell-based
T. brucei strain S427 = experiment: HAT vt: Human African trypanosoma viability assay; details: 72 hour, resazurin, read-out: measured activity (IC50), HAT vt, TbbS427
[1] = tested on: L. donovani strain MHOM/SD/00/LS; experiment: LEI axe: Leishmania axenic amastigote assay; details: 72 hour, axenic amastigotes, resazurin, read-out: measured activity (IC50), LEI axe, Ld1S
L929 mouse fibroblast = experiment: CYT vt: cytotoxicity viability assay; details: L929, read-out: measured activity (IC50), CYT vt, L929

## O=C(CCCCCCC(=O)Nc1ccccc1)NO [GRM1, SAHA, reference compound]
T. brucei strain S427
  IC50: 1.81 µM
[1]
  IC50: > 5 µM
L929 mouse fibroblast
  IC50: 0.155 µM

From PMC4581690, “Targeting Lysine Deacetylases (KDACs) in Parasites” (PLoS Neglected Tropical Diseases, 2015)
